Patent US20030108877A1, “Methods for selecting and producing selective pharmaceutical compounds and compositions using an established genetically altered cell-based library responsive to transcription factors; genetic constructs and library therefor” (priority 2000, published 2003)
For at least one compound, name, drawing or mass did not settle the structure.

System: estrogen receptor ER
Assay: GFP reporter under ER-responsive minimal promoter, stably transfected C2C12 cells
Assay type: cell-based
Conditions: C2C12 myoblast-derived line, estradiol added

## C[C@]12CC[C@@H]3c4ccc(O)cc4CC[C@H]3[C@@H]1CC[C@@H]2O [estradiol]
  GFP expression (green fluorescence): only the cell line containing endogenous ER (the MCF-7 line) can respond
